Laboratory results taken from PMC5374433 (Pharmaceuticals, 2017).
HELM strings list residues between dots; [ac] is acetyl, [am] amide, other brackets name non-standard units.

Experiment: general procedure: Fmoc solid-phase peptide synthesis; Fmoc-Leu-Wang resin; PyBOP/HOBt/DIPEA; HATU/DIPEA

Substance	final HPLC purity (whole synthesis, analytical HPLC) [%]	final HPLC purity (conjugation step, 220 nm) [%]	conjugation yield (conjugation step, on TRAP(alkyne)3) [%]
H-Nle(6-N3)-NLys-Lys-Pro-Tyr-Tle-Leu-OH	>99		
PEPTIDE1{[Nle6Trz].[NLys].K.P.Y.[Tle].L}|PEPTIDE2{[Nle6Trz].[NLys].K.P.Y.[Tle].L}|PEPTIDE3{[Nle6Trz].[NLys].K.P.Y.[Tle].L}|CHEM1{[TRAPam3]}$PEPTIDE1,CHEM1,1:R3-1:R1|PEPTIDE2,CHEM1,1:R3-1:R2|PEPTIDE3,CHEM1,1:R3-1:R3$$$V2.0		>95	42
